# Data source: PubChem BioAssay AID1671195 (Yale University, 2021)
# Screen: 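Knockdowns that increase or decrease uptake of fluorescent LDL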 (primary screen)
# System: human Huh7 hepatoma cells
# Reagents: siRNA pool against human genes, 18 nM
# Time to read-out: about 2 to 2.5 days of knockdown, then 8 h LDL uptake
# Challenge: DiI-labelled LDL at 30 µg/ml for 8 h, in lipoprotein-deficient serum medium
# Detection: 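Per-cell DiI-LDL intensity by automated imaging; well means scaled to the plate median and given as a robust z-score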
# Direction: robust z-score: higher = more LDL uptake after knockdown
# Active means: 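a gene counts as active if at least two replicate z-scores exceed ±2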
# The deposit covers about 22,000 reagents; below is a random part of them. In the full data, about 1,510 (6.9%) were called active. 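Active includes knockdowns raising or lowering LDL uptake; positive z-scores mean more uptake, negative mean less.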 A number with no mark means an inactive call. No sequences are given here.
gene knocked down,"robust z-score, replicate 1","robust z-score, replicate 2","robust z-score, replicate 3"
MRPL58,-0.262,-0.0912,-0.169
GDI1,0.0681,1.53,0.159
SH3BGRL2,0.259,0.57,0.299
LINC01597,-0.148,-0.796,-0.42
WASH3P,2.66 (active),3,2.68
GRB10,-0.803,-0.237,-0.155
FOXL2,1.33,0.944,0.404
ZP4,-1.25,-0.878,-0.786
TRIM75,-1.15,-1.31,-1.25
BORCS6,0.01,-0.493,-0.182
LRRC52,0.403,0.536,0.394
LINC00343,0.109,-0.956,0.25
TESK2,-0.789,-1.17,-1.02
SLC51A,-0.269,-0.366,-0.21
TEX10,-0.177,-0.814,0.351
CD3D,1.67,1.55,1.65
MASTL,-0.241,0.864,-0.443
LOC440389 (retired record),0.685,0.845,0.519
HAMP,0.154,-0.916,-0.097
VPS9D1,2.25 (active),1.73,2.02
ZIC1,-0.824,-1.16,-1.04
ZNF846,-0.416,-1.19,-0.272
UBE2J2,0.469,-0.345,-0.991
CTSO,-0.3,-0.336,13.8
POU2F1,1.94 (active),1.83,2.01
LAT2,0.436,1.29,-0.0994
RAB3GAP2,1.11,-0.0541,-0.0117
RPL31P33,1.02,0.86,0.524
TMEM191A,3.05 (active),3.9,3.14
LOC145414 (retired record),0.0949,-0.56,-0.146
BCL2L1,-0.292,-0.462,-1.2
TMPRSS11B,1.99,1.4,1.7
CTSG,1.49,0.221,1.08
MRPL2,2.79,1.19,-1.28
LOC442280 (retired record),-1.08,-1.11,0.145
G6PC3,-0.154,-0.233,-0.414
ADAMTSL4-AS1,0.829,0.907,0.626
PLCD1,0.345,0.376,0.704
XRCC4,0.453,2.14,1.62
FOXP2,2.39 (active),2.26,2.1
LOC440255 (retired record),-0.271,-0.558,-0.484
P2RY11,-1.09,-1.42,-1.21
KIAA0513,0.774,-0.948,-0.713
PITPNA,-0.052,-0.333,-0.637
KDSR,-1.91,-1.88,-1.94
AGBL1,1.1,0.523,1.46
FGF2,3.26 (active),3.09,1.91
SUMO1,0.261,0.11,-0.355
MED31,1.39,0.658,0.803
ADRB2,2.31,1.52,1.46
PYCR3,4.12 (active),3.02,5.41
DCSTAMP,0.672,-0.193,0.749
OR10A2,1.1,1.13,0.701
GSK3A,-0.835,-1.01,0.228
ZNF234,0.0862,-0.349,0.447
C11orf86,0.527,0.414,0.662
BCL2L2,-0.626,0.399,-0.622
AGBL3,-0.277,-0.0975,0.0229
OR2M3,1.69,1.51,-0.0852
DNAAF9,0.219,1.16,-0.0492
RMC1,2.14 (active),1.24,2.46
EPX,-0.309,-0.435,-0.553
METTL6,-0.157,-0.794,-0.657
LAGE3,0.866,0.758,0.571
PRRT3,-1.27,-1.47,-1.53
NELFA,-0.341,0.645,-0.272
BCAS4,0.054,-0.795,-1.3
PRDM14,-0.36,-0.488,-0.551

Reagents listed above marked active, once more:
gene knocked down,"robust z-score, replicate 1","robust z-score, replicate 2","robust z-score, replicate 3"
WASH3P,2.66 (active),3,2.68
VPS9D1,2.25 (active),1.73,2.02
POU2F1,1.94 (active),1.83,2.01
TMEM191A,3.05 (active),3.9,3.14
FOXP2,2.39 (active),2.26,2.1
FGF2,3.26 (active),3.09,1.91
PYCR3,4.12 (active),3.02,5.41
RMC1,2.14 (active),1.24,2.46
